Compound in the assay: Nc1ncnc2c1ncn2[C@@H]1O[C@H](COP(=O)(O)OP(=O)(O)NP(=O)(O)O)[C@@H](O)[C@H]1O [adenylyl imidodiphosphate]
The assay is described as follows: NP40-soluble protein abundance relative to vehicle (solubility fold change) (ratio); higher = more soluble protein in presence of AMP-PNP. Summed up: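 Crude Jurkat lysate, prepared by Dounce homogenisation, was exposed to eight concentrations from 0.1 to 10 mM for 10 min at room temperature and then 3 min at 37 °C. Solubilisation used 0.8% NP40 with benzonase for 60 min at 4 °C, followed by ultracentrifugation and TMT labelling of the supernatant for LC-MS/MS. After vsn normalisation of intensities, each value is the fold change against the detergent-processed vehicle within each replicate, across three independent experiments.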

Sequences of proteins named here, by UniProt entry; tags and fusion partners are left off. A change or cut given only in a name is not applied to a line headed by its entry.
UniProt Q16595: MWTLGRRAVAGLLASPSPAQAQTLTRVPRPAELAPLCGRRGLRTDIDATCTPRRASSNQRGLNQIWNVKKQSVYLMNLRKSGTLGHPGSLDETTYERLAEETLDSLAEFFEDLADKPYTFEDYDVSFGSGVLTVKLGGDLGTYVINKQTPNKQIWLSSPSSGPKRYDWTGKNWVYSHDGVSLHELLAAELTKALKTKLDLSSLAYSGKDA
UniProt P43243: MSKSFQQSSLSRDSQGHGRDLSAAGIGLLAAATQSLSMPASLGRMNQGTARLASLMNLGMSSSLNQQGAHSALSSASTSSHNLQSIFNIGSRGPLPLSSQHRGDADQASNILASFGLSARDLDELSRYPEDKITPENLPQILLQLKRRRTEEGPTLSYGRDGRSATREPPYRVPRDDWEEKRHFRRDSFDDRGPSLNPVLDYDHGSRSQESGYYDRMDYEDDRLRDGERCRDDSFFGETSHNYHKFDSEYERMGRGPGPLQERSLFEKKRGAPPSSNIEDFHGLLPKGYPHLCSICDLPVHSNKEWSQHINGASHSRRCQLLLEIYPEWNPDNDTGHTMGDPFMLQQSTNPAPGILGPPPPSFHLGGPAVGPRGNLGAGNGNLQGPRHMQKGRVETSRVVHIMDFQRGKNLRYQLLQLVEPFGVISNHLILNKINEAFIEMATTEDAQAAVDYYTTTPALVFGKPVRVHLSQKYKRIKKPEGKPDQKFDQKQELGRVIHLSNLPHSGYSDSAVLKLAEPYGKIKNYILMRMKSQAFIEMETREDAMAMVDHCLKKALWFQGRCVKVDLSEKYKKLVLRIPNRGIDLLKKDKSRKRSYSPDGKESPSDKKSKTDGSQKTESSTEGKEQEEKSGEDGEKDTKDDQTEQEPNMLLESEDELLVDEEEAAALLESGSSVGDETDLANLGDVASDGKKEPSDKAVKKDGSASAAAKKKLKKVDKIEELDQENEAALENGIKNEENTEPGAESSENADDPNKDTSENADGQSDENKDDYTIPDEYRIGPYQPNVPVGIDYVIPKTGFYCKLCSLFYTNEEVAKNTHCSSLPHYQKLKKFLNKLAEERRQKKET
UniProt Q12905: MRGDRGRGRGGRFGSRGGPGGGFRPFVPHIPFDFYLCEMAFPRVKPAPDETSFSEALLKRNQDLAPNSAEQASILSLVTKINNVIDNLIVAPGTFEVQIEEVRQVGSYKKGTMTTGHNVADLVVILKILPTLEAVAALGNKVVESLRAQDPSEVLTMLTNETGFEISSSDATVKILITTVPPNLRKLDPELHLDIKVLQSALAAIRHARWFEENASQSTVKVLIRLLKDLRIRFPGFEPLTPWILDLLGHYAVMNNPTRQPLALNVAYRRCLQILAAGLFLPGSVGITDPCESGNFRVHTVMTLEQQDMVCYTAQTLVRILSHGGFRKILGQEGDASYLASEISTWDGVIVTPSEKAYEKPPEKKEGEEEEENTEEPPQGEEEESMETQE
UniProt Q70CQ3: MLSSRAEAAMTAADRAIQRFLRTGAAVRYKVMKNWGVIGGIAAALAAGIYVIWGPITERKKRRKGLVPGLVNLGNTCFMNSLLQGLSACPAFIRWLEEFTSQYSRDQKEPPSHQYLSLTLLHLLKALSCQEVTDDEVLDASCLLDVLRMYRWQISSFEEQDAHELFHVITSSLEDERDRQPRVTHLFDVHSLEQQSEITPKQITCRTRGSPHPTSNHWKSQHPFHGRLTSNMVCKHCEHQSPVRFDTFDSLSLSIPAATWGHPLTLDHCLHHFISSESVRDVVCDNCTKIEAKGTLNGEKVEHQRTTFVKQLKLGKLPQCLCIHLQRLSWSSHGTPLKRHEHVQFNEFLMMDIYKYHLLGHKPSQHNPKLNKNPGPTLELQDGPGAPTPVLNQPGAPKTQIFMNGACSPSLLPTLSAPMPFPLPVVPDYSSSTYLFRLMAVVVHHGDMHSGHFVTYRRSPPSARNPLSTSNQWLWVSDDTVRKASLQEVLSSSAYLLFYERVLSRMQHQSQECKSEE
UniProt P99999: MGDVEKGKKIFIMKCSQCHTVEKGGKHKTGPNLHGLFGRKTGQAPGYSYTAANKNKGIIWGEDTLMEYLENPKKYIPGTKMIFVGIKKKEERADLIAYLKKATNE
UniProt O00189: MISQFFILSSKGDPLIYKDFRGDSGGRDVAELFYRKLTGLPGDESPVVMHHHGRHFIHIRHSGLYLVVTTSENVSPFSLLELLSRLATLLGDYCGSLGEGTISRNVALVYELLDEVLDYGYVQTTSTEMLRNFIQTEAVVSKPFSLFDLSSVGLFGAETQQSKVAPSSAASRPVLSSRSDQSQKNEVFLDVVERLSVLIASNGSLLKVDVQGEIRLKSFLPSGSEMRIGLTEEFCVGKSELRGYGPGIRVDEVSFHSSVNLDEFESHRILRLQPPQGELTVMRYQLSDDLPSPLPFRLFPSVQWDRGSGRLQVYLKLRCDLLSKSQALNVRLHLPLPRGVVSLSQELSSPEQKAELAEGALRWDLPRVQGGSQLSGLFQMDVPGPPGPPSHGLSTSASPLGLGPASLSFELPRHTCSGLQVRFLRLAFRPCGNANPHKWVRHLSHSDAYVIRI
UniProt P63165, whole entry: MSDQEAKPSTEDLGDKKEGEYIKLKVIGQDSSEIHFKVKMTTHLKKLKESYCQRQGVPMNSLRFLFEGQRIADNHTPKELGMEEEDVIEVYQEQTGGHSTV
UniProt A6QL63: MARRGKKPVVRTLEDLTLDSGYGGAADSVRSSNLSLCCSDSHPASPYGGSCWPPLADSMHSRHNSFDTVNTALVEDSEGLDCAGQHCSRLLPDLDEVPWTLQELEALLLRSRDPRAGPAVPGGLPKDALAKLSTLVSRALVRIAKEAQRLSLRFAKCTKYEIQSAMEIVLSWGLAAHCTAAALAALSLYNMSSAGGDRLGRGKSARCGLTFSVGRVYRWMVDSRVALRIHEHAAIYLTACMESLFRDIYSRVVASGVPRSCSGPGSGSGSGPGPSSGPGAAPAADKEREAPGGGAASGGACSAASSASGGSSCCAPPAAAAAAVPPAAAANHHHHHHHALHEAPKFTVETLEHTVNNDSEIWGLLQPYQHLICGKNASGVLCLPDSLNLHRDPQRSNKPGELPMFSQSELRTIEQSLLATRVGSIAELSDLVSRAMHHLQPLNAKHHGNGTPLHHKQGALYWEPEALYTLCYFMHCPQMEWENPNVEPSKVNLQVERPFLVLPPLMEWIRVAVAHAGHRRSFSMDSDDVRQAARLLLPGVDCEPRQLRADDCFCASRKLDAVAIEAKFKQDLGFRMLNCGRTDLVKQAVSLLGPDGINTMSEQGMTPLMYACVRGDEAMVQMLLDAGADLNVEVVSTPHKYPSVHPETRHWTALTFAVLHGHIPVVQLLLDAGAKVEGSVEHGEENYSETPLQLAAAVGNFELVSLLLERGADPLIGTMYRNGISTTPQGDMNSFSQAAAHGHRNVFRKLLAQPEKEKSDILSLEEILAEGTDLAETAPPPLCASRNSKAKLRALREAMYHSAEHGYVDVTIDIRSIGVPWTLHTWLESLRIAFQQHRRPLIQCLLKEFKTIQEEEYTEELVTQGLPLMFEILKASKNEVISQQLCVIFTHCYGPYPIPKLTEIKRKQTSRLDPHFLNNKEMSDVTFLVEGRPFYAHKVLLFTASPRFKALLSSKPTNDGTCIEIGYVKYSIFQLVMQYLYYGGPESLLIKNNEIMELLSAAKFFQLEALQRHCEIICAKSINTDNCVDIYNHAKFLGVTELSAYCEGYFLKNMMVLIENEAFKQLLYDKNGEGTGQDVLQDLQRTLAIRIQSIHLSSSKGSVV
UniProt Q9Y483: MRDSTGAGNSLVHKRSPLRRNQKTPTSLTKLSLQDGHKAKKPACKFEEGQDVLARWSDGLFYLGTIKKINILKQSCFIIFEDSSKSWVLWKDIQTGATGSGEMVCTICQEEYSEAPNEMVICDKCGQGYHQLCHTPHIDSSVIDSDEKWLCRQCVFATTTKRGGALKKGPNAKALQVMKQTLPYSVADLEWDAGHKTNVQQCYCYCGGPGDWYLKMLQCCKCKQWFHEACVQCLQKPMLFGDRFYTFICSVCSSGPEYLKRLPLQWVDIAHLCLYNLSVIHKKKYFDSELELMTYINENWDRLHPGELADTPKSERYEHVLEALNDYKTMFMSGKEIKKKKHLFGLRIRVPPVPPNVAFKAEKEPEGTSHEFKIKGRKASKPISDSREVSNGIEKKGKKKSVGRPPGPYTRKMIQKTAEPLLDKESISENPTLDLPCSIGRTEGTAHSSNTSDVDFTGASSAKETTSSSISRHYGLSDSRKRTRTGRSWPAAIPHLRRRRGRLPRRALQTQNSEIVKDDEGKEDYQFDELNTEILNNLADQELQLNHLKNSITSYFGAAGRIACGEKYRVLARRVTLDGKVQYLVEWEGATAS
UniProt Q8NEZ3: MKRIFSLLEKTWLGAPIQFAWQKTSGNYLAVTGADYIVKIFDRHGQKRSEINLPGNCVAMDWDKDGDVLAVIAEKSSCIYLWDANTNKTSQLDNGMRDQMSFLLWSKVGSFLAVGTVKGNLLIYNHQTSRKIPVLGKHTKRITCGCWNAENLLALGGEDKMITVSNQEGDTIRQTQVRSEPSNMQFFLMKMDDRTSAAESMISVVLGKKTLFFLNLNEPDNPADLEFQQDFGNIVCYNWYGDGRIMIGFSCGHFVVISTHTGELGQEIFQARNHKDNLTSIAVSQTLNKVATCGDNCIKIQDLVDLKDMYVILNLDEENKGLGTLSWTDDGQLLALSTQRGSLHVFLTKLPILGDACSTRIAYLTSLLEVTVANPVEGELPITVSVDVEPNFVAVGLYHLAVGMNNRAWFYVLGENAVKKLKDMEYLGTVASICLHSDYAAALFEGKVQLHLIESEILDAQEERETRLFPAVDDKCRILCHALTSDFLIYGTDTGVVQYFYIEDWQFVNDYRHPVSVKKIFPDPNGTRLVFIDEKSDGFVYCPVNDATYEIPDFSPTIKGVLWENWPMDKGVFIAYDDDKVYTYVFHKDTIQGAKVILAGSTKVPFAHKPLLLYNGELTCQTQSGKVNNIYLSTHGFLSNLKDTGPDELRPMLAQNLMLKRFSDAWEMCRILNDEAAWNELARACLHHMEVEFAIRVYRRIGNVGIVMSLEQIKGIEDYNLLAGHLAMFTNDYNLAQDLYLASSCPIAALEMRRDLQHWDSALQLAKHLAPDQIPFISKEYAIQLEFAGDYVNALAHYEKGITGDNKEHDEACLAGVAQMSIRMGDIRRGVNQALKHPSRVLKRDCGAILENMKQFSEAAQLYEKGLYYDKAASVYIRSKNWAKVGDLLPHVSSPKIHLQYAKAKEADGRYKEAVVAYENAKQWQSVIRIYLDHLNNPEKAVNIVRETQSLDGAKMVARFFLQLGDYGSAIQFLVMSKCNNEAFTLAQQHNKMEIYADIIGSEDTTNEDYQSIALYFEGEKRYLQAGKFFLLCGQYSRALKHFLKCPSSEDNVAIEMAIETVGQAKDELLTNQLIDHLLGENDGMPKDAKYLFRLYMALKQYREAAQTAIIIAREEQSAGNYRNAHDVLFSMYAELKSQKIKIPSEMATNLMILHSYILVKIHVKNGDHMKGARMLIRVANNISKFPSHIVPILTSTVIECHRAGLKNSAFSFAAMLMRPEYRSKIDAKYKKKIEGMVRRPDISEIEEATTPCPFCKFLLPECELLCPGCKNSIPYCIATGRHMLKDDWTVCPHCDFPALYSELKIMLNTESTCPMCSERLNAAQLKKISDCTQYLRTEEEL
UniProt P08174: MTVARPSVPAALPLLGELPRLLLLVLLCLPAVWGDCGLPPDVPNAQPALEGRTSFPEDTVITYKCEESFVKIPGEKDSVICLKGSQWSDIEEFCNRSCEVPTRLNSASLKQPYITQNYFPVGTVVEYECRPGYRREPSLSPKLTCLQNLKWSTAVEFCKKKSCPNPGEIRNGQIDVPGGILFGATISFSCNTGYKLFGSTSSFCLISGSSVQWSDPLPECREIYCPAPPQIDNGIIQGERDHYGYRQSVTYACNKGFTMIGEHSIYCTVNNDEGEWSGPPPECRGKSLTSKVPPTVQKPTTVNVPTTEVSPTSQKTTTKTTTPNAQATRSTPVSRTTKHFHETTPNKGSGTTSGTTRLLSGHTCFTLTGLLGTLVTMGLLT
UniProt P07602: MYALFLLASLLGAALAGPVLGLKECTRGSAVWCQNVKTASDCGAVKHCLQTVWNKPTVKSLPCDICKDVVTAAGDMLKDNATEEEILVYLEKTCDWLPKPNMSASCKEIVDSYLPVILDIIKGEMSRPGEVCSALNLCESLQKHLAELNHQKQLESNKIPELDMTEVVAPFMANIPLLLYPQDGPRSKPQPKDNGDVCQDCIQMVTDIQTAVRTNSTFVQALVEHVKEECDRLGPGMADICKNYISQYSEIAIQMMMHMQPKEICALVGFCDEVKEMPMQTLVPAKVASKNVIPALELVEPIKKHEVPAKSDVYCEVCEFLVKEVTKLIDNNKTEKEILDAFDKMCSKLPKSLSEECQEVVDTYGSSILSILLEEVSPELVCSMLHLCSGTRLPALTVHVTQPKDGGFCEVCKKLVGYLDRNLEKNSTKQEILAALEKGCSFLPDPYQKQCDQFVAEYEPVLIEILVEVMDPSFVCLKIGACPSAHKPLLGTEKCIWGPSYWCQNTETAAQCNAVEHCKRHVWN

± gives the standard deviation of the averaged measurements. This is a selection; strong and weak results do not stand in their true shares. Most entries show no effect beyond the scatter of the controls.

With “C9JAX1 and related entries (UniProt Q16595)”, the NP40-soluble protein abundance reads like this: (concentration: 0.1mM) 0.922 ± 0.053; (concentration: 0.5mM) 0.95 ± 0.048.
On the same counts, the results for “D4PHA4 and related entries (UniProt Q86WP2)” are 0.955 ± 0.021 and 1.008 ± 0.0058.
On the same counts, the results for “A9X3U0 and related entries (UniProt Q96GF1)” are 0.988 ± 0.048 and 1.02 ± 0.029.
On to “A8MXP9 and related entries (UniProt P43243)”, for which the NP40-soluble protein abundance was found to be 1.01 ± 0.034 (concentration: 0.1mM) and 1.02 ± 0.041 (concentration: 0.5mM).
The corresponding values for “B4DY09 and related entries (UniProt Q12905)” are 1.03 ± 0.026 and 1.089 ± 0.0086.
On the same counts, the results for “B3KUS5 and related entries (UniProt Q70CQ3)” are 0.9756 ± 0.0069 and 0.974 ± 0.022.
The corresponding values for “C9JFR7 and related entries (UniProt P99999)” are 0.961 ± 0.076 and 1.07 ± 0.12.
In the case of “C9IZL5 and related entries (UniProt O00189)”, the NP40-soluble protein abundance reads like this: (concentration: 0.1mM) 1.01 ± 0.031; (concentration: 0.5mM) 1 ± 0.071.
As to “B8ZZN6 and related entries (UniProt P63165)”, the NP40-soluble protein abundance (concentration: 0.1mM) was 1.01 ± 0.037 and the NP40-soluble protein abundance (concentration: 0.5mM) amounted to 1.06 ± 0.12.
UniProt A6QL63 and related entries: the NP40-soluble protein abundance (concentration: 0.1mM) is 0.978 ± 0.019 and the NP40-soluble protein abundance (concentration: 0.5mM) amounted to 1.01 ± 0.047.
On the same counts, the results for “B4DZG1 and related entries (UniProt Q9Y483)” are 0.974 ± 0.025 and 0.959 ± 0.011.
The corresponding values for “D6RE75 and related entries (UniProt Q8NEZ3)” are 0.9989 ± 0.0036 and 0.975 ± 0.042.
The corresponding values for “B1AP13 and related entries (UniProt P08174)” are 1.02 ± 0.039 and 1.039 ± 0.0082.
As to “B5MCX3 and related entries (UniProt Q15019)”, the NP40-soluble protein abundance runs as follows: (concentration: 0.1mM) 1.01 ± 0.019; (concentration: 0.5mM) 1.011 ± 0.0065.
Consider “C9JIZ6 and related entries (UniProt P07602)”, for which the NP40-soluble protein abundance is, setting by setting: (concentration: 0.1mM) 0.952 ± 0.029; (concentration: 0.5mM) 1.01 ± 0.079.
Turning to “A6NFX8 and related entries (UniProt Q9UKK9)”, the NP40-soluble protein abundance (concentration: 0.1mM) came out at 1.04 ± 0.025 and the NP40-soluble protein abundance (concentration: 0.5mM) worked out at 1.02 ± 0.065.

(Values after the supplement of paper PMC6411743.)
